According to US10745778B2, “Leaching aids and methods of using leaching aids” (BASF SE, priority 2015, dated 2020):

What was measured:
[1] = One stage solvent extraction circuit for about one week, then standard QC test for LIX reagents (Example 5); conditions: 10 ppm MC1000
[2] = Column testing, first set of 60 day column leach trials (Example 1); conditions: 25 ppm; end of the 60 day leach cycle

SMILES: CCCCCCCCCC[N+](C)(C)CC(=O)[O-] [MC1000]
- Extraction Aqueous Break [1]: 176 s
- Extraction Organic break [1]: 60 s
- Strip Aqueous Break [1]: 130 s
- Strip Organic break [1]: 96 s
- delta versus Blank, Extraction Organic break [1]: -9 s
- delta versus Blank, Pre QC test Aqueous Break [1]: 44 s
- delta versus Blank, Pre QC test Organic break [1]: 79 s
- delta versus Blank, Strip Aqueous Break [1]: 1 s
- delta versus Blank, Strip Organic break [1]: 29 s
- Pre QC test Aqueous Break ([1]; aqueous continuous): 104 s
- Pre QC test Organic break ([1]; organic continuous phase break with QC electrolyte): 168 s
- average increase in copper leached from the ore (in excess of the control) [2]: 3.7%
